Source: article PMC5724004
Results are given in words; binding and its absence hold for the method and conditions named. In cells and extracts the contact can be indirect. Some entries that bind do so weakly or less than the wild type.

Key:
[1] = molecular target: T1, breakpoint cluster region (BCR) (rat (endogenous in cultured hippocampal and cortical neurons)) (UniProt F1LXF1); test: co-IP; lysate of hippocampal neurons transduced with Sindbis virus expressing GFP (control) or PHCCEx-myc for 12 h; Tiam1 IP and BCR IP, blotted for NR1
T1 sequence: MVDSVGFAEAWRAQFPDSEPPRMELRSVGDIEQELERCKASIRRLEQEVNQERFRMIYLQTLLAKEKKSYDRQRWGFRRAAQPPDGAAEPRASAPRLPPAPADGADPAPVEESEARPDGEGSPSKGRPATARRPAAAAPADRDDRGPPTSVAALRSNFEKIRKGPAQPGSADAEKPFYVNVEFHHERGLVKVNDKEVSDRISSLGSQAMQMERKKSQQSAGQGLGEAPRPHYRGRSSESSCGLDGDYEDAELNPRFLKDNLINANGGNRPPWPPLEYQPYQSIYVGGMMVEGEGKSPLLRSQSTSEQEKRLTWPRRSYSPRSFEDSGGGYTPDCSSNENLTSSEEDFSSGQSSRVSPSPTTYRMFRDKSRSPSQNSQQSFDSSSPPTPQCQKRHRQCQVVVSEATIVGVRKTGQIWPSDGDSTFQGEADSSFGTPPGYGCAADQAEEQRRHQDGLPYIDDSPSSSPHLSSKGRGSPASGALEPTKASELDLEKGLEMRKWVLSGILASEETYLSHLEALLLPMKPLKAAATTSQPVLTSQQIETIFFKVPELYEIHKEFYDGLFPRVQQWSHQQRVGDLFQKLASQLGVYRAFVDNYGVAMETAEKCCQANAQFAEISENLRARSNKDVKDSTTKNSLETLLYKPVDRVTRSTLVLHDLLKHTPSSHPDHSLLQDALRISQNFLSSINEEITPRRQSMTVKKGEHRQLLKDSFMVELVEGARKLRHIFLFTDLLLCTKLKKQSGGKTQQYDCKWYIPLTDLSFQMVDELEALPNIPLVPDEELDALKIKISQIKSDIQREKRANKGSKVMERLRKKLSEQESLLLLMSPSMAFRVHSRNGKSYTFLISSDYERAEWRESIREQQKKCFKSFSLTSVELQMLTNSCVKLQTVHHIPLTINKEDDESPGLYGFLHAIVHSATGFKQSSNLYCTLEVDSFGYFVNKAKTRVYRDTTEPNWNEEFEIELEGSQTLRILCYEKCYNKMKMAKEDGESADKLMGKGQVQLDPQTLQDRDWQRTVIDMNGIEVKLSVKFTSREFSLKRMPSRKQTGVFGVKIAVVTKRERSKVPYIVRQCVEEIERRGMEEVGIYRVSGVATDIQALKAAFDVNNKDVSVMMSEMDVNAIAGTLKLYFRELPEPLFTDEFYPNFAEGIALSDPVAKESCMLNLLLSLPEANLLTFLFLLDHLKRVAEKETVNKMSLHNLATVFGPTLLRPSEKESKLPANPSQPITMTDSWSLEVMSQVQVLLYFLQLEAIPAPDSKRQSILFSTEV

[2] = molecular target: T1, breakpoint cluster region (BCR) (rat (endogenous in cultured hippocampal and cortical neurons)); test: co-IP; lysate of cultured rat hippocampal or cortical neurons (50 mM Tris pH 7.5, 1% Triton X-100, 150 mM NaCl, 1 mM EDTA), 2 μg antibody 2 h at 4 °C, protein G beads, Western blot; control conditions or OGD

NMDA receptor subunit NR1 (from UniProt P35439 19-938)
binding [1]: binds
binding [2]: binds
